Target: T1, CB1 receptors (Mus musculus, UniProt P47746)
T1 construct: from tissue; host or cells: mouse brain membranes
Type: biochemical
Conditions: 1 μM, 30 min at 30° C.

The chains behind the UniProt entries cited, without tags or fusion partners.
UniProt P47746, whole entry: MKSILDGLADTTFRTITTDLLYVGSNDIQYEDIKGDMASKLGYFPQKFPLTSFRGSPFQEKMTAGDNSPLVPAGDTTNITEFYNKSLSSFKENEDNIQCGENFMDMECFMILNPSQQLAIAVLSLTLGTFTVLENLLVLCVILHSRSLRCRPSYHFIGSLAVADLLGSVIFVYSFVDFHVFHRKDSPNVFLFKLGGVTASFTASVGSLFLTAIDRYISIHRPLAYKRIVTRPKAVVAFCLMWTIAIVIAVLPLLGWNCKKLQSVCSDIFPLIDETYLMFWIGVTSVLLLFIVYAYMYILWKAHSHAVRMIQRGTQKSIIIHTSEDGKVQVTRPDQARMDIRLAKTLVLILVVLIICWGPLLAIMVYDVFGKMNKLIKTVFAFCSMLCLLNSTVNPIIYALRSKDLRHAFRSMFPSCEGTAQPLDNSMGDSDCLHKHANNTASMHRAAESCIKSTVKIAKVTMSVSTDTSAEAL

Cc1c(C(=O)NN2CCCCC2)nn(-c2ccc(Cl)cc2Cl)c1-c1ccc(I)cc1 [AM251, reference compound] was tested, and the “effect on G-protein activity, in words” value was “inhibited”.

From patent US9095598B2, “Stilbenoid derivatives and their uses” (The Board of Trustees of the University of Arkansas, priority 2010, dated 2015)
